The values below come from PubChem BioAssay AID248 (DTP/NCI, 2004).

The list shows only some results of the screen, not a fair sample: its compounds were picked by chemical class. Other doses and runs of a compound may be missing. T/C: endpoint of the treated group in % of that of the vehicle group. Some entries give survivors of the animals treated and no T/C: the source holds a T/C of zero for them, seemingly a mark for toxic or unscored doses. Some survivor counts are full or nearly so, which does not show that the dose was tolerated: survival well below the control is almost never listed, so the zero probably covers shortened survival too. Survivors were counted at the toxicity check, usually on the fifth day, unless a day is given; later deaths do not show. Schedule codes are those of the source, taken here to give the interval after Q, in days (D) or hours (H), and the number of doses after X. For survival time, this PubChem deposit counts one and a half times the control or more as active, and values a quarter to a half above the control carry no call in these data; other NCI protocols may use other cut-offs. Additions like (4×) stand for listed records that agree. Some entries hold several experiments; their values stand side by side, smallest first. Some T/C values are marked as having no survivor count here; that says nothing about deaths at the dose. Some T/C values carry the count of animals alive at the toxicity check (mostly the fifth day); where neither a count nor a note follows, no animal had died by that day.

The assay has as its system L1210 leukemia ip in BDF1 mice, survival T/C. Put plainly: NCI In Vivo Anticancer Drug Screen. Data for tumor model L1210 Leukemia (intraperitoneal) in B6D2F1 (BDF1) mice. The note with it: T/C endpoint: mean survival time, higher T/C = longer survival.
Setting [1] is: dose: 5.0 mg/kg/injection, schedule: Q01DX001 (ip), vehicle: saline.
[2] abbreviates: dose: 10.0 mg/kg/injection, schedule: Q01DX001 (ip), vehicle: saline.
Where [3] appears, read: dose: 20.0 mg/kg/injection, schedule: Q01DX001 (ip), vehicle: saline.
[4] abbreviates: dose: 40.0 mg/kg/injection, schedule: Q01DX001 (ip), vehicle: saline.
The mark [5] stands for this setting: dose: 80.0 mg/kg/injection, schedule: Q01DX001 (ip), vehicle: saline.

With `COC(=O)C(N)Cc1ccc(N(CCCl)CCCl)cc1` (configuration not stated), the T/C was 133 % of control (dose: 0.88 mg/kg/injection, schedule: Q01DX009 (ip), vehicle: saline); 225 % of control (dose: 0.88 mg/kg/injection, schedule: Q03HX024 (ip), vehicle: saline); 107 % of control (dose: 1.25 mg/kg/injection, schedule: Q01DX001 (ip), vehicle: saline); 126 % of control (dose: 1.25 mg/kg/injection, schedule: Q01DX009 (ip), vehicle: saline); 143 % of control (dose: 1.3 mg/kg/injection, schedule: Q01DX009 (ip), vehicle: saline); 255 % of control (dose: 1.3 mg/kg/injection, schedule: Q03HX024 (ip), vehicle: saline). Besides, the T/C was 154 % of control (dose: 2.0 mg/kg/injection, schedule: Q01DX009 (ip), vehicle: saline); 321 % of control (dose: 2.0 mg/kg/injection, schedule: Q03HX024 (ip), vehicle: saline); 138 % of control (dose: 2.5 mg/kg/injection, schedule: Q01DX001 (ip), vehicle: saline); 142 % of control (dose: 2.5 mg/kg/injection, schedule: Q01DX009 (ip), vehicle: saline); 241 % of control [5 of 6 alive] (dose: 3.0 mg/kg/injection, schedule: Q01DX009 (ip), vehicle: saline); 114 % of control (dose: 3.0 mg/kg/injection, schedule: Q03HX024 (ip), vehicle: saline). Besides, the T/C is, setting by setting: (dose: 4.5 mg/kg/injection, schedule: Q01DX009 (ip), vehicle: saline) 193 % of control; under setting [1], 136 % of control; (dose: 5.0 mg/kg/injection, schedule: Q01DX009 (ip), vehicle: saline) 214 % of control; (dose: 6.6 mg/kg/injection, schedule: Q04DX003 (ip), vehicle: saline) 181 % of control; under setting [2], 141 and 177 % of control; (dose: 10.0 mg/kg/injection, schedule: Q01DX009 (ip), vehicle: saline) 162 % of control. The T/C was 241 % of control (dose: 10.0 mg/kg/injection, schedule: Q04DX003 (ip), vehicle: saline); 322 % of control (dose: 15.0 mg/kg/injection, schedule: Q04DX003 (ip), vehicle: saline); 197 % of control [5 of 6 alive] under setting [3]; 121 % of control (dose: 22.5 mg/kg/injection, schedule: Q04DX003 (ip), vehicle: saline). The survivor count is, setting by setting: (dose: 4.5 mg/kg/injection, schedule: Q03HX024 (ip), vehicle: saline) 6 of 6; (dose: 33.75 mg/kg/injection, schedule: Q04DX003 (ip), vehicle: saline) 4 of 6; under setting [4], 5 of 6; (dose: 75.0 mg/kg/injection, schedule: Q01DX001 (ip), vehicle: saline) 2 of 6; (dose: 150.0 mg/kg/injection, schedule: Q01DX001 (ip), vehicle: saline) 0 of 6; (dose: 300.0 mg/kg/injection, schedule: Q01DX001 (ip), vehicle: saline) 0 of 6.
On to `O=C1C2CCCCC1C(N1CCCC1)CC2` (configuration not stated), for which the T/C was 101 % of control (dose: 75.0 mg/kg/injection, schedule: Q01DX009 (ip), vehicle: Klucel (hydroxypropylcellulose) (HPC)); 93 % of control (dose: 100.0 mg/kg/injection, schedule: Q01DX001 (ip), vehicle: Klucel (hydroxypropylcellulose) (HPC)); 90 % of control (dose: 150.0 mg/kg/injection, schedule: Q01DX009 (ip), vehicle: Klucel (hydroxypropylcellulose) (HPC)); 103 % of control (dose: 200.0 mg/kg/injection, schedule: Q01DX001 (ip), vehicle: Klucel (hydroxypropylcellulose) (HPC)); 98 % of control (dose: 300.0 mg/kg/injection, schedule: Q01DX009 (ip), vehicle: Klucel (hydroxypropylcellulose) (HPC)); 93 % of control (dose: 400.0 mg/kg/injection, schedule: Q01DX001 (ip), vehicle: Klucel (hydroxypropylcellulose) (HPC)).
As for `CCOP(OCC)OCc1ccccc1`, the T/C (dose: 100.0 mg/kg/injection, schedule: Q04DX003 (ip), vehicle: saline) was 124 % of control; the T/C (dose: 200.0 mg/kg/injection, schedule: Q04DX003 (ip), vehicle: saline) was 97 % of control; the T/C (dose: 400.0 mg/kg/injection, schedule: Q04DX003 (ip), vehicle: saline) is 109 % of control.
`O=[N+]([O-])N=C1NCCN1`: the T/C by setting is: (dose: 100.0 mg/kg/injection, schedule: Q04DX002 (ip), vehicle: Klucel (hydroxypropylcellulose) (HPC)) 100 % of control; (dose: 200.0 mg/kg/injection, schedule: Q04DX002 (ip), vehicle: Klucel (hydroxypropylcellulose) (HPC)) 103 % of control; (dose: 400.0 mg/kg/injection, schedule: Q04DX002 (ip), vehicle: Klucel (hydroxypropylcellulose) (HPC)) 93 % of control.
Regarding `O=c1[nH]nc([N+](=O)[O-])[nH]1`, the T/C runs as follows: (dose: 100.0 mg/kg/injection, schedule: Q01DX009 (ip), vehicle: saline with Tween-80) 88 % of control [survivor count not shown]; (dose: 200.0 mg/kg/injection, schedule: Q01DX009 (ip), vehicle: saline with Tween-80) 89 % of control [survivor count not shown]; (dose: 400.0 mg/kg/injection, schedule: Q01DX009 (ip), vehicle: saline with Tween-80) 94 % of control [survivor count not shown].
`O=P(Cl)(c1ccccc1)c1ccccc1`: the T/C by setting is: (dose: 100.0 mg/kg/injection, schedule: Q04DX003 (ip), vehicle: saline with Tween-80) 98 % of control; (dose: 200.0 mg/kg/injection, schedule: Q04DX003 (ip), vehicle: saline with Tween-80) 96 % of control; (dose: 400.0 mg/kg/injection, schedule: Q04DX003 (ip), vehicle: saline with Tween-80) 95 % of control.
`COc1cc2c(c3oc(=O)c4c(c13)CCC4=O)[C@@H]1C=CO[C@@H]1O2`: the T/C runs as follows: under setting [1], 103 and 104 % of control; under setting [2], 104 and 109 % of control; under setting [3], 113 % of control (2×); under setting [4], 113 and 119 % of control; under setting [5], 122 % of control; (dose: 15.6 micrograms/kg/injection, schedule: Q01DX001 (ip), vehicle: saline) 100 % of control. The T/C reads like this: (dose: 31.3 micrograms/kg/injection, schedule: Q01DX001 (ip), vehicle: saline) 97 % of control; (dose: 62.5 micrograms/kg/injection, schedule: Q01DX001 (ip), vehicle: saline) 97 % of control; (dose: 125.0 micrograms/kg/injection, schedule: Q01DX001 (ip), vehicle: saline) 97 % of control; (dose: 250.0 micrograms/kg/injection, schedule: Q01DX001 (ip), vehicle: saline) 100 % of control; (dose: 500.0 micrograms/kg/injection, schedule: Q01DX001 (ip), vehicle: saline) 97 % of control; (dose: 1000.0 micrograms/kg/injection, schedule: Q01DX001 (ip), vehicle: saline) 92 % of control. The T/C is, setting by setting: (dose: 2000.0 micrograms/kg/injection, schedule: Q01DX001 (ip), vehicle: saline) 100 % of control; (dose: 4000.0 micrograms/kg/injection, schedule: Q01DX001 (ip), vehicle: saline) 105 % of control. In addition, under setting [5], the survivor count is given as 2 of 4.
Take `O=P(Cl)(Cl)NC12CC3CC(CC(C3)C1)C2`: the T/C is, setting by setting: (dose: 50.0 mg/kg/injection, schedule: Q01DX009 (ip), vehicle: Klucel (hydroxypropylcellulose) (HPC)) 95 % of control; (dose: 100.0 mg/kg/injection, schedule: Q01DX009 (ip), vehicle: Klucel (hydroxypropylcellulose) (HPC)) 101 % of control; (dose: 100.0 mg/kg/injection, schedule: Q04DX003 (ip), vehicle: Klucel (hydroxypropylcellulose) (HPC)) 92 % of control; (dose: 200.0 mg/kg/injection, schedule: Q04DX003 (ip), vehicle: Klucel (hydroxypropylcellulose) (HPC)) 93 % of control. Further, the survivor count by setting is: (dose: 200.0 mg/kg/injection, schedule: Q01DX009 (ip), vehicle: Klucel (hydroxypropylcellulose) (HPC)) 2 of 6; (dose: 400.0 mg/kg/injection, schedule: Q04DX003 (ip), vehicle: Klucel (hydroxypropylcellulose) (HPC)) 0 of 6.
